Experimental data as given in doi:10.1101/2020.08.10.245464.
No constants are given. Whether binding was seen depends on the method and setting. In cells and extracts the contact can be indirect. Some binding calls cover weakened binding; strength is not graded here.

Chains of the proteins cited; added tags and fusions are not shown.
UniProt P40763, whole entry: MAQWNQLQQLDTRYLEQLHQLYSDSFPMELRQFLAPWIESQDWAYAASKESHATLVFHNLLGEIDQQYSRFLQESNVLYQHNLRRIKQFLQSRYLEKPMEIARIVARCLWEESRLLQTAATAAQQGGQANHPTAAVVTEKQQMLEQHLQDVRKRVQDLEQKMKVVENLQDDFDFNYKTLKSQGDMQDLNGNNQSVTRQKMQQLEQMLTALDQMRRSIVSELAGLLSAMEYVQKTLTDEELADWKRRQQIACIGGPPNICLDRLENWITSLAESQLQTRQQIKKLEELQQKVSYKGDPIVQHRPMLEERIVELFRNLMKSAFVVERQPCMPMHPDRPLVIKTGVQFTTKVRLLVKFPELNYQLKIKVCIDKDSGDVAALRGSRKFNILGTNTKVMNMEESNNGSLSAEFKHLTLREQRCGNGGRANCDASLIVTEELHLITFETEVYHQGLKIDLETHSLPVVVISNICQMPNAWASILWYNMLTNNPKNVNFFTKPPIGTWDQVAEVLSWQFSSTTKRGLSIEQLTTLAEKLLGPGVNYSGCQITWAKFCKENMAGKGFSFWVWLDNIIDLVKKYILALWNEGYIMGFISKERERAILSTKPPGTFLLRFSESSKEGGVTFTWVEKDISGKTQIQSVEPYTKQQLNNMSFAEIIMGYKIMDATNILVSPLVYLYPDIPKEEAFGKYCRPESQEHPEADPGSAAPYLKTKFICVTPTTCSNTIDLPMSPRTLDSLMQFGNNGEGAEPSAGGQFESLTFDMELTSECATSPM
UniProt P52294, whole entry: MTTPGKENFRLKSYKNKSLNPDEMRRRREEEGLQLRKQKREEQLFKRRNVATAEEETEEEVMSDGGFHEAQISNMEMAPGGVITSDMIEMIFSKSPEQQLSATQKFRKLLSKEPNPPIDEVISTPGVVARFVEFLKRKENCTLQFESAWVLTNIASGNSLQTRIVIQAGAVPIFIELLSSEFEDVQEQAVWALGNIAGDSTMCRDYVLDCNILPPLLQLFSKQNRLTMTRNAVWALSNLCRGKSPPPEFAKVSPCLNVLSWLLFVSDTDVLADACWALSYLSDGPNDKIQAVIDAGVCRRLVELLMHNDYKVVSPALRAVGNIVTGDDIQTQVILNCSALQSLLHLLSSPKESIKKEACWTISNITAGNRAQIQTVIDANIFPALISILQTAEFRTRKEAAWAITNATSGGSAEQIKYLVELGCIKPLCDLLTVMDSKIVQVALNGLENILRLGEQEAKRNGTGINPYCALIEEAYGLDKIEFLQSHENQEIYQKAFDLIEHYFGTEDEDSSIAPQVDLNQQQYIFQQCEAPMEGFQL

Tests used:
Test in all cases: co-IP
[1] = molecular target: GFP-VP24 (Ebola virus VP24 fused to GFP) (Zaire ebolavirus (EBOV)) (UniProt Q05322)
[2] = molecular target: FLAG-tagged STAT3 (UniProt P40763)
[3] = molecular target: FLAG-tagged karyopherin alpha-1 (Kα1) (UniProt P52294)

Row | Substance | binding [1] | binding [2] | binding [3]
1 | FLAG-tagged STAT3 (from UniProt P40763 1-770) | binds |  | 
2 | GFP-VP24 (Ebola virus VP24 fused to GFP) (from UniProt Q05322 1-251) |  | binds | binds
3 | STAT3, endogenous (human cells) (from UniProt P40763 1-770) | binds |  | 
